Results published in paper doi:10.1101/2023.03.23.533910 (bioRxiv, 2023).
Where two headings read alike, the source gives them in different places. These are yes or no findings as the source states them, for the method shown. In cells and extracts the contact can be indirect. Some binding calls cover weakened binding; strength is not graded here. For part of these data: Sequences can lack the tags named with a protein. One block for each molecule: values may come before it.

Chains of the proteins cited; added tags and fusions are not shown.
UniProt Q8RSY1: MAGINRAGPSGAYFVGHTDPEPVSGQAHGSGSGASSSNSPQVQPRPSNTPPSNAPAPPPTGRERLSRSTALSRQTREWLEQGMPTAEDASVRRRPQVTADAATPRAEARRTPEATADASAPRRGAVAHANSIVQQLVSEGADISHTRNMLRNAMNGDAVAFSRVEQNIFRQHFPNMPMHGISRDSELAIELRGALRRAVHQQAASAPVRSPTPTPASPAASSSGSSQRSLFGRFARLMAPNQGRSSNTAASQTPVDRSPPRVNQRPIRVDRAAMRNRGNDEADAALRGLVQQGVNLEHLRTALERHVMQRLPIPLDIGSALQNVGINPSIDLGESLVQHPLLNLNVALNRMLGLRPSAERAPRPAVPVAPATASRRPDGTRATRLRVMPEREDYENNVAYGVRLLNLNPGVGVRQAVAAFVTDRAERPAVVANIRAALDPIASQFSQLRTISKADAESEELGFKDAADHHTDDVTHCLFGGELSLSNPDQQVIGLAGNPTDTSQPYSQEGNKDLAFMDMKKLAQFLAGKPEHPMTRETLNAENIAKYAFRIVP

What was measured:
[1] = molecular target: ADR1-cLuc (Arabidopsis thaliana) (UniProt Q9FW44); assay: split reporter
[2] = molecular target: T1, ADR1-FLAG (Arabidopsis thaliana) (UniProt Q9FW44); assay: co-IP
T1 sequence: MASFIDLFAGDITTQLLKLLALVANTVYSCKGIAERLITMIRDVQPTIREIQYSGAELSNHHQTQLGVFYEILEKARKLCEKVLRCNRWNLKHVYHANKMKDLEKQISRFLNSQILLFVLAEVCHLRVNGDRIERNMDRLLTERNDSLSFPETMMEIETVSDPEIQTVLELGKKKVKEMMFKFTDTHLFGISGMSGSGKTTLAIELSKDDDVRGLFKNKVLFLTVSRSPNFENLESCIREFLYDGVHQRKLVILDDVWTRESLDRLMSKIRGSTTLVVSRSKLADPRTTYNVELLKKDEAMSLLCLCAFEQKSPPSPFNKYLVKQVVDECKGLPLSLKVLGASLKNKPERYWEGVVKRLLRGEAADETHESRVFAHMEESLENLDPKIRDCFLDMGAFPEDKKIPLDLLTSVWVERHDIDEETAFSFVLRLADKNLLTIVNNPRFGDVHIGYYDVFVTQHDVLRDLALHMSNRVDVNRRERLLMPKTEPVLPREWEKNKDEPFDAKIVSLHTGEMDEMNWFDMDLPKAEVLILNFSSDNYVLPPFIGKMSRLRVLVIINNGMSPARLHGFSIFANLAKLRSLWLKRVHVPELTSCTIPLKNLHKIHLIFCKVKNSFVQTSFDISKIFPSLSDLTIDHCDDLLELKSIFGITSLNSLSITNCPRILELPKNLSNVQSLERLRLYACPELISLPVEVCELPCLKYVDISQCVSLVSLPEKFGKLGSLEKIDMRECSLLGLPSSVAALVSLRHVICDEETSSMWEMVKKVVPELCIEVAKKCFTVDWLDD

[3] = molecular target: T1, ADR1-FLAG (Arabidopsis thaliana); assay: co-IP; remark: listed apart in the source

Molecule: AvrPtoB-nLuc (from UniProt Q8RSY1 1-553)
binding [1]: binds

Molecule: AvrPtoB-HA (from UniProt Q8RSY1 1-553)
binding [2]: binds

binding [3]: binds
B1: 3xHA-tagged SNC1 (natural protein, Arabidopsis thaliana, UniProt O23530 1-1437, looked up)
chain: MMDTSKDDDMEIASSSGSRRYDVFPSFRGEDVRDSFLSHLLKELRGKAITFIDDEIERSRSIGPELLSAIKESRIAIVIFSKNYASSTWCLNELVEIHKCYTNLNQMVIPIFFHVDASEVKKQTGEFGKVFEETCKAKSEDEKQSWKQALAAVAVMAGYDLRKWPSEAAMIEELAEDVLRKTMTPSDDFGDLVGIENHIEAIKSVLCLESKEARIMVGIWGQSGIGKSTIGRALYSKLSIQFHHRAFITYKSTSGSDVSGMKLRWEKELLSEILGQKDIKIEHFGVVEQRLKQQKVLILLDDVDSLEFLKTLVGKAEWFGSGSRIIVITQDRQLLKAHEIDLIYEVEFPSEHLALTMLCRSAFGKDSPPDDFKELAFEVAKLAGNLPLGLSVLGSSLKGRTKEWWMEMMPRLRNGLNGDIMKTLRVSYDRLHQKDQDMFLYIACLFNGFEVSYVKDLLKDNVGFTMLTEKSLIRITPDGYIEMHNLLEKLGREIDRAKSKGNPGKRRFLTNFEDIHEVVTEKTGTETLLGIRLPFEEYFSTRPLLIDKESFKGMRNLQYLEIGYYGDLPQSLVYLPLKLRLLDWDDCPLKSLPSTFKAEYLVNLIMKYSKLEKLWEGTLPLGSLKEMNLRYSNNLKEIPDLSLAINLEELDLVGCKSLVTLPSSIQNATKLIYLDMSDCKKLESFPTDLNLESLEYLNLTGCPNLRNFPAIKMGCSDVDFPEGRNEIVVEDCFWNKNLPAGLDYLDCLTRCMPCEFRPEQLAFLNVRGYKHEKLWEGIQSLGSLEGMDLSESENLTEIPDLSKATKLESLILNNCKSLVTLPSTIGNLHRLVRLEMKECTGLEVLPTDVNLSSLETLDLSGCSSLRSFPLISTNIVWLYLENTAIEEIPSTIGNLHRLVRLEMKKCTGLEVLPTDVNLSSLETLDLSGCSSLRSFPLISESIKWLYLENTAIEEIPDLSKATNLKNLKLNNCKSLVTLPTTIGNLQKLVSFEMKECTGLEVLPIDVNLSSLMILDLSGCSSLRTFPLISTNIVWLYLENTAIEEIPSTIGNLHRLVKLEMKECTGLEVLPTDVNLSSLMILDLSGCSSLRTFPLISTRIECLYLQNTAIEEVPCCIEDFTRLTVLMMYCCQRLKTISPNIFRLTRLELADFTDCRGVIKALSDATVVATMEDHVSCVPLSENIEYIWDKLYRVAYLQEHFSFRNCFKLDRDARELILRSCFKPVALPGEEIPKYFTYRAYGDSLTVIVPQSSLSQNFLRFKACVVVEPLSKGKGFYPFLKVNVGFNGKQYQKSFSKDAELELCKTDHLFFCSFKFRSEDLPSKLNFNDVEFKFCCSNRIKECGVRLMYVSQEENNQQTTRSEKRMRMTSGTSEEDINLPYGLIVADTGLAALNMELSLGQGEPSSSTSLEGEALCVDYMITEEQDKGIPILFPVSGN
